Experimental findings from PubChem BioAssay AID743402 (Broad Institute, 2014) are described below.

Screen size: about 1,200 compounds; about 140 (12%) were called active.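 The calls were made as follows: active = fitted curve falls past -35% activity change at a dose under twice the top valid dose, in every replicate test; inconclusive = replicate tests disagree on the call; inactive = the rest, including activity in the opposite direction.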 Most of the strongest results are missing from this list.

This assay is described as follows: CFTR-F508del correctors, dose response, FRT cells, YFP quenching, cherry-pick (AID 743402).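 Also: compounds act as correctors raising surface CFTR-F508del before acute activation.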 Conditions: FRT CFTR-F508del YFP iodide quenching, 24 h, channel opened with forskolin and a potentiator; at 26 µM (top of the series) unless noted.
On to `CCCCn1nc(NC(=O)CC)c2cc3cc(OC)ccc3nc21`, for which the activity change, negative = more quenching (active) is inactive: 10%.

In the case of `Cc1cc(Br)cc(/C=N/NC(=O)c2ccc3c(c2)OCO3)c1O`, the activity change, negative = more quenching (active) was inactive: 13.3%.

Regarding `CCN1CCN(c2cc(C)c3cc(NC(=O)c4ccc(OC)c(OC)c4)ccc3n2)CC1`, the activity change, negative = more quenching (active) was inactive: 15.6%.

For `O=C(CCN1CCCCC1)N1CCc2c([nH]c3ccccc23)C1c1cccnc1` (centres undefined), the activity change, negative = more quenching (active) was inactive: 3.33%.

For the compound `COc1cccc(C#Cc2ccc3c(c2)O[C@@H](CN(C)C(=O)c2ccccn2)[C@H](C)CN([C@@H](C)CO)S3(=O)=O)c1`, the activity change, negative = more quenching (active) was inactive: 6.91%.

With `CCc1cc(-c2nnn(CCC3COCCO3)c2CC)ccc1-c1cn(Cc2ccc3ccccc3c2)nn1` (centres undefined), the activity change, negative = more quenching (active) is inactive: 6.67%.

As for `Cc1nn(S(=O)(=O)c2ccc(Cl)cc2)c(C)c1Sc1ccc([N+](=O)[O-])cc1`, the activity change, negative = more quenching (active) was inactive: 3.33%.

As for `CCN1C(=O)c2cccc3c(S(=O)(=O)N(C(C)=O)c4ccc(OC(C)=O)cc4)ccc1c23`, the activity change, negative = more quenching (active) is inactive: 4.17%.

In the case of `CCOc1cc(N2CCOCC2)c(OCC)cc1NC(=O)CN1C(=O)NC2(CCCCC2)C1=O`, the activity change, negative = more quenching (active) was inactive: 7.14%.

As to `O=c1cc(-c2ccccc2)[nH]c2ccc(F)cc12`, the activity change, negative = more quenching (active) is inactive: 9.79%.

Regarding `Fc1ccc2nc(C3CCN(Cc4nc(CC5CC5)no4)CC3)[nH]c2c1`, the activity change, negative = more quenching (active) was inactive: 13.3%.

Consider `CC(C)(C)C1COc2ccccc2N1C(=O)c1cccc(Cl)c1` (centres undefined), for which the activity change, negative = more quenching (active) is inactive: 0%.

For `NS(=O)(=O)c1ccc(Cl)c(S(N)(=O)=O)c1`, the activity change, negative = more quenching (active) was inactive: 3.33%.

For `CCOc1ccc(NS(=O)(=O)c2cc(NC(=O)CCNC(=O)c3ccco3)ccc2OC)cc1`, the activity change, negative = more quenching (active) is inactive: 10%.

In the case of `COc1cc(-c2nccc3cc4c(cc23)OCO4)cc(OC)c1OC`, the activity change, negative = more quenching (active) was inactive: -6.25%.

As for `CCNC(=O)C[C@@H]1C=C[C@@H](NC(=O)NC2CCCCC2)[C@H](CO)O1`, the activity change, negative = more quenching (active) was inactive: 0%.

With `O=C(N/N=C/c1c(O)ccc2ccccc12)c1ccc(CO)nc1`, the activity change, negative = more quenching (active) is inactive: -6.25%.

Turning to `O=C(NCc1ccccc1)C1Cc2c(-c3ccc(Cl)cc3)ccnc2O1` (centres undefined), the activity change, negative = more quenching (active) was inactive: -6.67%.

For the compound `COc1ccccc1CNC(=O)Nc1nc(C(N)Cc2ccc(Cl)cc2)cs1` (centres undefined), the activity change, negative = more quenching (active) was inactive: -13.3%.

For `CC1CN(S(=O)(=O)c2ccc(C(=O)Nc3ccccc3F)cc2)CC(C)O1` (centres undefined), the activity change, negative = more quenching (active) is inactive: 3.12%.

For the compound `CC(OC(=O)c1cccs1)C(=O)NC1CCCCC1C` (centres undefined), the activity change, negative = more quenching (active) was inactive: -3.12%.

As to `COc1ccccc1N=C1SC(C(=O)Nc2cccc(Cl)c2Cl)C(N)=C1C(N)=O` (centres undefined), the activity change, negative = more quenching (active) is inactive: 9.13%.

Turning to `CN(c1ccc(OCCOc2ccccc2Cl)cc1)S(=O)(=O)c1ccccc1`, the activity change, negative = more quenching (active) was inactive: 6.67%.

For `Cc1ccc(-n2cc(-c3ccccc3)c3c(N4CCOCC4)ncnc32)cc1`, the activity change, negative = more quenching (active) was inactive: 27.8%.
